Each number is a percent effect as filed. How 0% and 100% were set is not recorded. Most values in the screen are low, and negative values occur. The compounds are a random part of those screened.

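Whole-cell assay for inhibitors of Mycobacterium tuberculosis growth, labelled Cornell in the record; the read-out is not stated. The concentration is filed as 10 mM, unlikely as a test dose, so the dose is not known. Higher means stronger inhibition (inferred from two other growth screens of the library). Of about 53,000 compounds tested this way, about 900 (1.7%) reached 50% or more in at least one test.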

{"smiles": "CC(C)c1nc(CN2CCCC2Cn2cccn2)no1", "stereo": "stereo not drawn", "effect": -6.401}
{"smiles": "Cc1cc(C(=O)N2CCc3c(ncnc3N3CCOCC3)C2)[nH]n1", "effect": 21.51}
{"smiles": "Cc1cc2nc(CN(C)c3ccccc3)cc(=O)n2o1", "effect": 0.7849}
{"smiles": "CCOCc1ncn2c1CN(S(=O)(=O)c1cccs1)CC2", "effect": 23.05}
{"smiles": "[H][C@]12CC[C@]([H])(CN(Cc3ccc(OC)cc3)C1)N(S(C)(=O)=O)C2", "effect": -9.044}
{"smiles": "CC(C)c1nc(C2CCCN2CCCc2nc3ccccc3o2)no1", "stereo": "stereo not drawn", "effect": 73.44}
{"smiles": "O=C1CC2(CCN(C(=O)c3cccc(Cl)c3)CC2)CN1", "effect": 3.5}
{"smiles": "C[C@H](NS(C)(=O)=O)C(=O)NCc1cc(-c2ccco2)n[nH]1", "effect": -30.06}
{"smiles": "COc1ccc(C)cc1CN1CCC(c2cc3ncccc3cn2)CC1.Cl", "effect": 102.1}
{"smiles": "O=C(NCc1ccc2c(c1)OCO2)c1ccccc1C1CCNC1", "stereo": "stereo not drawn", "effect": 7.38}
{"smiles": "Cc1cc(CNC(C)Cn2cncn2)ccc1Br", "stereo": "stereo not drawn", "effect": 14.74}
{"smiles": "Cc1occc1C(=O)NCC(O)c1ccc(Cl)s1", "stereo": "stereo not drawn", "effect": -9.722}
{"smiles": "CC(C)(C)C1CC(=O)Nc2c1cnn2Cc1ccco1", "stereo": "stereo not drawn", "effect": 34.21}
{"smiles": "Cc1nc2n(n1)CC(NCc1nc(-c3cccnc3)no1)CC2", "stereo": "stereo not drawn", "effect": -21.45}
{"smiles": "CCN1CC2(CCC1=O)CCN(C(=O)c1cn3cccnc3n1)CC2", "effect": -6.961}
{"smiles": "O=C1NC2(CCc3ccccc31)CCN(Cc1cccnc1)C2", "stereo": "stereo not drawn", "effect": -6.179}
{"smiles": "Cc1nnc(SC2CCc3ccccc3NC2=O)o1", "stereo": "stereo not drawn", "effect": 6.811}
{"smiles": "O=C1CC(c2ccccc2)C2(CCN(C(=O)c3cnccn3)CC2)N1", "stereo": "stereo not drawn", "effect": 12.17}
{"smiles": "Cc1cnc(CN2CCCC(c3cc(C(N)=O)[nH]n3)C2)o1", "stereo": "stereo not drawn", "effect": -8.621}
{"smiles": "CC(=O)Nc1ccc(CNCc2cccnc2N(C)C)cc1", "effect": 31.33}
{"smiles": "CN1CCC(Cc2noc(CC3CC3)n2)CC1", "effect": -2.055}
{"smiles": "Cc1[nH]ncc1CCCNC(=O)Nc1ccccc1", "effect": -14.63}
{"smiles": "COc1ccc(C(=O)N2CCCCC2Cn2cccn2)c(F)c1", "stereo": "stereo not drawn", "effect": 8.944}
{"smiles": "CC(C)NC(=O)C1(CC2CC(c3ccc(F)cc3)=NO2)CCNCC1.O=C(O)CC(O)(CC(=O)O)C(=O)O", "stereo": "stereo not drawn", "effect": -11.17}
{"smiles": "CCc1ccc(S(=O)(=O)NCCC(O)c2ccoc2)s1", "stereo": "stereo not drawn", "effect": 19.95}
{"smiles": "CN(C)C(=O)Cc1ccc(NC(=O)NC2CCCC2)cc1", "effect": -19.84}
{"smiles": "O=C(CCNC(=O)c1ccccc1)Nc1ccncc1", "effect": -3.601}
{"smiles": "Cc1nc(CN2C(=O)COC3(CCN(Cc4ccsc4)CC3)C2C)cs1.O=C(O)C(F)(F)F", "stereo": "stereo not drawn", "effect": 6.82}
{"smiles": "Cc1n[nH]cc1CNCC(O)c1ccc(F)c(F)c1.Cl", "stereo": "stereo not drawn", "effect": -6.695}
{"smiles": "CC1(c2[nH]ncc2C(N)=O)CCN(S(=O)(=O)c2ccccc2)CC1", "effect": 22.89}
{"smiles": "CNC(=O)c1cc(-c2ccccc2)nc2ncnn12", "effect": 14.01}
{"smiles": "Cc1cc(C)c(CNC(=O)C(C)Oc2ccccc2C#N)c(=O)[nH]1", "stereo": "stereo not drawn", "effect": 10.04}
{"smiles": "COCCNc1ncc(-c2cc(C)no2)c(-c2ccco2)n1", "effect": -34.06}
{"smiles": "CCS(=O)(=O)c1ccc2c(c1)OCCO2", "effect": -1.259}
{"smiles": "O=S(=O)(Nc1ccc(N2CCOCC2)cc1)c1cccc(F)c1", "effect": 107.6}
{"smiles": "[H][C@]12CC[C@@]3(N=C(c4ccccc4)NC3=O)[C@@]1([H])CN(Cc1ccco1)C2", "effect": -13.34}
{"smiles": "N#Cc1ccc(OCC(O)CN2CCN(c3nccs3)CC2)cc1", "stereo": "stereo not drawn", "effect": -35.11}
{"smiles": "CC(C)NC(=O)N1CC(=O)c2sc(NC3CCCCC3)nc2C1", "effect": -25.38}

Some entries from above, unchanged:

| SMILES | effect |
|---|---|
| `Cc1cc(CNC(C)Cn2cncn2)ccc1Br` (stereo not drawn) | 14.74 |
| `Cc1[nH]ncc1CCCNC(=O)Nc1ccccc1` | -14.63 |
| `O=C(NCc1ccc2c(c1)OCO2)c1ccccc1C1CCNC1` (stereo not drawn) | 7.38 |

The values are deposited in ChEMBL (CHEMBL3988442, “University of Dundee, Small-Polar-MMV Screening Library” (2021)).